The list shows only some results of the screen, not a fair sample: it gathers tests that were run many times, whatever their T/C, doses with no T/C, and many T/C values between a quarter and a half above the control. Further doses and runs are listed elsewhere. T/C is the treated group as % of the vehicle group. Some doses have a count of surviving animals in place of a T/C: the source holds a T/C of zero for them, seemingly a mark for toxic or unscored doses. Some doses without a T/C left all or most animals alive at the check, yet need not have been tolerated: the source hardly ever lists a survival T/C far under the control, and the zero likely stands for such cases as well. Counts of survivors are from the toxicity check (mostly the fifth day) where no day follows; animals may have died later. Schedule codes are those of the source, taken here to give the interval after Q, in days (D) or hours (H), and the number of doses after X. Some schedule codes hold Z or #, which are not explained here. Some molecules as drawn cover several salts, stereoisomers or complexes of the source; a dose is that of the sample tested. Some entries were tested several times; the results are listed from low to high. For survival time, the PubChem record calls one and a half times the control and up active, and a quarter to a half above the control has no call in these data; cut-offs in other NCI protocols can differ. Brackets with × give the number of equal values in this list. Some T/C values carry the count of animals alive at the toxicity check (mostly the fifth day); without a count, all were alive then.
Tested on: CD2F1 mice, L1210 leukemia sc, survival T/C
Assay: NCI In Vivo Anticancer Drug Screen. Data for tumor model L1210 Leukemia (subcutaneous) in CD2F1 (CDF1) mice
Details: T/C endpoint: median survival time, higher T/C = longer survival
Procedure: The antitumor activity of compounds was measured in mice bearing transplantable tumors. Survival or tumor size were measured and the results are expressed as the measurement made in the treated group (T) divided by the measurement made in the vehicle treated control group (C). The tumor model used in this assay is L1210 Leukemia (subcutaneous) in CD2F1 (CDF1) mice

[1] = dose: 0.4 mg/kg/injection, schedule: Q01DX009 (sc), vehicle: saline
[2] = dose: 1.6 mg/kg/injection, schedule: Q01DX009 (sc), vehicle: saline

With CN(Cc1cnc2nc(N)nc(N)c2n1)c1c(Cl)cc(C(=O)NC(CCC(=O)O)C(=O)O)cc1Cl (stereo unspecified) the T/C (dose: 12.5 mg/kg/injection, schedule: Q01DX009 (ip), vehicle: saline with Tween-80) was 127 % of control, the T/C (dose: 16.2 mg/kg/injection, schedule: Q01DX Z (oral), vehicle: other) was 145 % of control and the T/C (dose: 16.2 mg/kg/injection, schedule: Q#A X Z (oral), vehicle: other) was 136 % of control. For the same compound, the T/C (dose: 25.0 mg/kg/injection, schedule: Q01DX009 (ip), vehicle: saline with Tween-80) was 131 % of control, the T/C (dose: 27.0 mg/kg/injection, schedule: Q01DX Z (oral), vehicle: other) was 131 % of control and the T/C (dose: 27.0 mg/kg/injection, schedule: Q#A X Z (oral), vehicle: other) was 140 % of control. The T/C (dose: 45.0 mg/kg/injection, schedule: Q01DX Z (oral), vehicle: other) was 127 % of control, the survivor count (dose: 45.0 mg/kg/injection, schedule: Q01DX Z (sc), vehicle: other) was 0 of 10 and the T/C (dose: 45.0 mg/kg/injection, schedule: Q#A X Z (oral), vehicle: other) was 127 % of control. The T/C (dose: 45.0 mg/kg/injection, schedule: Q#A X Z (sc), vehicle: other) was 145 % of control, the T/C (dose: 50.0 mg/kg/injection, schedule: Q01DX009 (ip), vehicle: saline with Tween-80) was 144 % of control and the T/C (dose: 62.5 mg/kg/injection, schedule: Q#A X Z (oral), vehicle: other) was 145 % of control. The survivor count (dose: 100.0 mg/kg/injection, schedule: Q01DX009 (ip), vehicle: saline with Tween-80) was 5 of 6, the T/C (dose: 104.0 mg/kg/injection, schedule: Q#A X Z (oral), vehicle: other) was 130 % of control and the T/C (dose: 104.0 mg/kg/injection, schedule: Q#A X Z (sc), vehicle: other) was 130 % of control. The T/C (dose: 125.0 mg/kg/injection, schedule: Q01DX Z (oral), vehicle: other) was 127 % of control, the T/C (dose: 125.0 mg/kg/injection, schedule: Q01DX Z (sc), vehicle: other) was 140 and 145 % of control and the survivor count (dose: 200.0 mg/kg/injection, schedule: Q01DX009 (ip), vehicle: saline with Tween-80) was 5 of 6. For the same compound, the T/C (dose: 208.0 mg/kg/injection, schedule: Q01DX Z (sc), vehicle: other) was 135 % of control [9 of 10 alive], the T/C (dose: 360.0 mg/kg/injection, schedule: Q01DX Z (sc), vehicle: other) was 144 % of control and the T/C (dose: 600.0 mg/kg/injection, schedule: Q01DX Z (oral), vehicle: other) was 144 % of control. For the same compound, the T/C (dose: 1000.0 mg/kg/injection, schedule: Q01DX Z (oral), vehicle: other) was 144 % of control [9 of 10 alive] and the T/C (dose: 1602.0 mg/kg/injection, schedule: Q03DX Z (oral), vehicle: other) was 136 % of control.

O=C(Nc1ccc(C2=NCCN2)cc1)c1ccc(C(=O)Nc2ccc(C3=NCCN3)cc2)c(Cl)c1 was tested, and the survivor count (dose: 5.0 mg/kg/injection, schedule: Q01DX Z (sc), vehicle: saline) was 2 of 10, the survivor count (dose: 8.4 mg/kg/injection, schedule: Q01DX Z (sc), vehicle: saline) was 1 of 10 and the survivor count (dose: 14.0 mg/kg/injection, schedule: Q01DX Z (sc), vehicle: saline) was 2 of 10. The survivor count (dose: 23.0 mg/kg/injection, schedule: Q01DX Z (iv), vehicle: water) was 6 of 10, the survivor count (dose: 23.0 mg/kg/injection, schedule: Q01DX Z (sc), vehicle: saline) was 4 of 10 and the survivor count (dose: 39.0 mg/kg/injection, schedule: Q01DX Z (sc), vehicle: saline) was 6 of 10. For the same compound, the survivor count (dose: 65.0 mg/kg/injection, schedule: Q01DX Z (sc), vehicle: saline) was 5 of 10, the survivor count (dose: 108.0 mg/kg/injection, schedule: Q01DX Z (sc), vehicle: saline) was 3 of 10 and the T/C (dose: 108.0 mg/kg/injection, schedule: Q01DX Z (sc), vehicle: water) was 133 % of control.

With CCOC(=O)C(CC(C)C)NC(=O)C(Cc1ccc(N(CCCl)CCCl)cc1)NC(C)=O (stereo unspecified) the T/C (dose: 64.0 mg/kg/injection, schedule: Q01DX009 (sc), vehicle: Klucel (hydroxypropylcellulose) (HPC)) was 140 % of control, the T/C (dose: 96.0 mg/kg/injection, schedule: Q01DX009 (sc), vehicle: Klucel (hydroxypropylcellulose) (HPC)) was 142 % of control and the T/C (dose: 256.0 mg/kg/injection, schedule: Q01DX009 (sc), vehicle: Klucel (hydroxypropylcellulose) (HPC)) was 138 % of control.

C1CN1c1nc(N2CC2)nc(N2CC2)n1 was tested, and the survivor count (dose: 0.1 mg/kg/injection, schedule: Q01DX009 (sc), vehicle: saline) was 3 of 10, the survivor count (dose: 0.2 mg/kg/injection, schedule: Q01DX009 (sc), vehicle: saline) was 4 of 10 and the T/C (dose: 0.3 mg/kg/injection, schedule: Q01DX009 (ip), vehicle: saline) was 131 % of control. For the same compound, the T/C (dose: 0.3 mg/kg/injection, schedule: Q01DX009 (sc), vehicle: saline) was 139 % of control, the T/C (dose: 0.4 mg/kg/injection, schedule: Q01DX009 (ip), vehicle: saline) was 126 % of control and the T/C [1] was 134 and 149 % of control. For the same compound, the survivor count [1] was 6 of 10, the T/C (dose: 0.53 mg/kg/injection, schedule: Q01DX009 (sc), vehicle: saline) was 141 % of control and the T/C (dose: 0.6 mg/kg/injection, schedule: Q01DX009 (ip), vehicle: saline) was 143 % of control. For the same compound, the T/C (dose: 0.6 mg/kg/injection, schedule: Q01DX009 (sc), vehicle: saline) was 148 % of control, the T/C (dose: 0.75 mg/kg/injection, schedule: Q01DX009 (ip), vehicle: saline) was 137 % of control and the T/C (dose: 0.75 mg/kg/injection, schedule: Q01DX009 (sc), vehicle: saline) was 143 % of control. The T/C (dose: 0.8 mg/kg/injection, schedule: Q01DX009 (sc), vehicle: saline) was 145 % of control, the T/C (dose: 1.2 mg/kg/injection, schedule: Q01DX009 (sc), vehicle: saline) was 135 % of control and the survivor count (dose: 1.6 mg/kg/injection, schedule: Q01DX009 (ip), vehicle: saline) was 10 of 10. For the same compound, the T/C [2] was 125 % of control, the survivor count [2] was 10 of 10 and the survivor count (dose: 3.2 mg/kg/injection, schedule: Q01DX009 (sc), vehicle: saline) was 5 of 10.

With O=NN(CCCl)C(=O)NCCCl the T/C (dose: 1.0 mg/kg/injection, schedule: Q01DX009 (ip), vehicle: saline + alcohol) was 148 % of control, the T/C (dose: 1.75 mg/kg/injection, schedule: Q01DX009 (ip), vehicle: saline + alcohol) was 141 % of control and the T/C (dose: 2.0 mg/kg/injection, schedule: Q01DX009 (sc), vehicle: saline + alcohol) was 142, 160, 179, 192 % of control. The T/C (dose: 3.5 mg/kg/injection, schedule: Q01DX009 (ip), vehicle: saline + alcohol) was 140 and 148 % of control, the T/C (dose: 4.0 mg/kg/injection, schedule: Q01DX009 (sc), vehicle: saline + alcohol) was 175, 223, 275, 285 % of control and the T/C (dose: 7.5 mg/kg/injection, schedule: Q01DX001 (ip), vehicle: saline + alcohol) was 118, 120, 121, 123, 136 % of control. For the same compound, the T/C (dose: 8.0 mg/kg/injection, schedule: Q01DX009 (sc), vehicle: saline + alcohol, evaluated on day 30) was 236 % of control, the T/C (dose: 8.0 mg/kg/injection, schedule: Q01DX009 (sc), vehicle: saline + alcohol, evaluated on day 45) was 271, 296, 404 % of control and the T/C (dose: 12.0 mg/kg/injection, schedule: Q01DX009 (ip), vehicle: saline + alcohol) was 130 % of control. For the same compound, the T/C (dose: 14.0 mg/kg/injection, schedule: Q01DX009 (ip), vehicle: saline + alcohol) was 129 % of control, the T/C (dose: 15.0 mg/kg/injection, schedule: Q01DX001 (ip), vehicle: saline + alcohol) was 140, 142, 144, 157, 180 % of control and the T/C (dose: 16.0 mg/kg/injection, schedule: Q01DX009 (ip), vehicle: saline + alcohol) was 146 % of control. For the same compound, the T/C (dose: 16.0 mg/kg/injection, schedule: Q01DX009 (sc), vehicle: saline + alcohol) was 146 % of control, the T/C (dose: 30.0 mg/kg/injection, schedule: Q01DX001 (ip), vehicle: saline + alcohol) was 300 (2×), 309, 319, 329 % of control and the survivor count (dose: 64.0 mg/kg/injection, schedule: Q01DX009 (ip), vehicle: saline + alcohol) was 9 of 10. For the same compound, the survivor count (dose: 64.0 mg/kg/injection, schedule: Q01DX009 (sc), vehicle: saline + alcohol) was 5 of 10 and 7 of 10, the T/C (dose: 65.0 mg/kg/injection, schedule: Q01DX017 (ip), vehicle: none) was 136 % of control and the T/C (dose: 65.0 mg/kg/injection, schedule: Q01DX017 (sc), vehicle: saline) was 133 % of control.

Source: PubChem BioAssay AID258 (DTP/NCI, 2004)
